Test results taken from patent US20210371478A1.
Results are given in words; binding and its absence hold for the method and conditions named. Some entries that bind do so weakly or less than the wild type. Tags and fused reporters may be left off the sequences shown.

T1: purified Reg Receptor tagged with FLAG epitope, expressed in 293T cells (human) (UniProt O43909)
T1 sequence: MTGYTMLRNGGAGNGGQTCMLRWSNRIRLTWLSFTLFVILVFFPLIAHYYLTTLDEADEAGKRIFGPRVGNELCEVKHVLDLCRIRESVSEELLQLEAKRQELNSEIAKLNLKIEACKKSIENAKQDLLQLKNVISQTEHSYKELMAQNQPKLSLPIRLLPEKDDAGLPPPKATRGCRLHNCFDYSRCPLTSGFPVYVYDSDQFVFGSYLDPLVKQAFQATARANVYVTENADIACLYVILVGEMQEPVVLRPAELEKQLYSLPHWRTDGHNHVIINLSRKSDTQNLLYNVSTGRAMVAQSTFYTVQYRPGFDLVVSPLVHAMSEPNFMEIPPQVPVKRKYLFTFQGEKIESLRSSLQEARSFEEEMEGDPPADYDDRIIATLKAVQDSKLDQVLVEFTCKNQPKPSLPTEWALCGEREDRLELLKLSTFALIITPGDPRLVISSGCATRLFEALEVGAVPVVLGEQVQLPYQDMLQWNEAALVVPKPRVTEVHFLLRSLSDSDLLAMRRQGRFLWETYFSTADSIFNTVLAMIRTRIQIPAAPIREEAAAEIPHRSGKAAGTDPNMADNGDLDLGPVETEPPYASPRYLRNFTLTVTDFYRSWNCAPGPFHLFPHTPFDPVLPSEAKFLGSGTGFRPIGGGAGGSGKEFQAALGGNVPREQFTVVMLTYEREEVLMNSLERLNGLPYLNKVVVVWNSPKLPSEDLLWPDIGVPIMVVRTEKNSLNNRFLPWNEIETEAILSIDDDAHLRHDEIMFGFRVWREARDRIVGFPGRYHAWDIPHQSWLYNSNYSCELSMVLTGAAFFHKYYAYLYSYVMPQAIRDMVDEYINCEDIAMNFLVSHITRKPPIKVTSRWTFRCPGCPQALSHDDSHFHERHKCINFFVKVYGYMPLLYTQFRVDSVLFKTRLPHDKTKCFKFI


Columns and labels:
[1] = target: T1, purified Reg Receptor tagged with FLAG epitope, expressed in 293T cells (human); experiment: plate assay on purified Reg receptor (FIG. 9)
[2] = target: T1, purified Reg Receptor tagged with FLAG epitope, expressed in 293T cells (human); experiment: plate assay: purified Reg receptor coated, peptide added, strep-HRP detection, absorbance at 405 nm

| binding [1] | binding [2] | Binder |
| --- | --- | --- |
| binds | binds | WIGLHDP [7-amino acid Reg peptide (SEQ ID NO: 3)] |
| binds | binds | VWIGLHDP [8-amino acid Reg peptide (SEQ ID NO: 4)] |
| binds | binds | NVWIGLHDP [9-amino acid Reg peptide (SEQ ID NO: 5)] |
